Measurements: paper PMC3390401, “Phosphorylation-Dependent Interactions between Crb2 and Chk1 Are Essential for DNA Damage Checkpoint” (PLoS Genetics, 2012)
These are yes or no findings as the source states them, for the method shown. Where a sequence is shown, tags or fusion partners need not be part of it.

Target: Hta1(120–132-pS129) peptide (S. pombe) (UniProt P04909)
Assay: pull-down; Same peptide pull-down repeated; eluates and serial dilutions of Chk1-YFH input examined by immunoblotting with an anti-GFP antibody; both purified

B1: YFP-Flag-His6 (YFH)-tagged Chk1 (enzyme, UniProt P34208 1-496)
chain: MAQKLDNFPYHIGREIGTGAFASVRLCYDDNAKIYAVKFVNKKHATSCMNAGVWARRMASEIQLHKLCNGHKNIIHFYNTAENPQWRWVVLEFAQGGDLFDKIEPDVGIDEDVAQFYFAQLMEGISFMHSKGVAHRDLKPENILLDYNGNLKISDFGFASLFSYKGKSRLLNSPVGSPPYAAPEITQQYDGSKVDVWSCGIILFALLLGNTPWDEAISNTGDYLLYKKQCERPSYHPWNLLSPGAYSIITGMLRSDPFKRYSVKHVVQHPWLTSSTPFRTKNGNCADPVALASRLMLKLRIDLDKPRLASSRASQNDSGFSMTQPAFKKNDQKELDRVEVYGALSQPVQLNKNIDVTEILEKDPSLSQFCENEGFIKRLAKKAKNFYEICPPERLTRFYSRASRETIIDHLYDSLRLLAISVTMKYVRNQTILYVNLHDKRKCLLQGVIELTNLGHNLELINFIKRNGDPLEWRKFFKNVVSSIGKPIVLTDVSQN
  binding: no binding
